Results on 4 molecules are retold here after publication PMC6890647.

By UniProt entry, the sequences of proteins in these tests, tags left out. Where a name states a change or a piece, a line headed by the entry shows the natural chain unless it says otherwise.
UniProt P09874: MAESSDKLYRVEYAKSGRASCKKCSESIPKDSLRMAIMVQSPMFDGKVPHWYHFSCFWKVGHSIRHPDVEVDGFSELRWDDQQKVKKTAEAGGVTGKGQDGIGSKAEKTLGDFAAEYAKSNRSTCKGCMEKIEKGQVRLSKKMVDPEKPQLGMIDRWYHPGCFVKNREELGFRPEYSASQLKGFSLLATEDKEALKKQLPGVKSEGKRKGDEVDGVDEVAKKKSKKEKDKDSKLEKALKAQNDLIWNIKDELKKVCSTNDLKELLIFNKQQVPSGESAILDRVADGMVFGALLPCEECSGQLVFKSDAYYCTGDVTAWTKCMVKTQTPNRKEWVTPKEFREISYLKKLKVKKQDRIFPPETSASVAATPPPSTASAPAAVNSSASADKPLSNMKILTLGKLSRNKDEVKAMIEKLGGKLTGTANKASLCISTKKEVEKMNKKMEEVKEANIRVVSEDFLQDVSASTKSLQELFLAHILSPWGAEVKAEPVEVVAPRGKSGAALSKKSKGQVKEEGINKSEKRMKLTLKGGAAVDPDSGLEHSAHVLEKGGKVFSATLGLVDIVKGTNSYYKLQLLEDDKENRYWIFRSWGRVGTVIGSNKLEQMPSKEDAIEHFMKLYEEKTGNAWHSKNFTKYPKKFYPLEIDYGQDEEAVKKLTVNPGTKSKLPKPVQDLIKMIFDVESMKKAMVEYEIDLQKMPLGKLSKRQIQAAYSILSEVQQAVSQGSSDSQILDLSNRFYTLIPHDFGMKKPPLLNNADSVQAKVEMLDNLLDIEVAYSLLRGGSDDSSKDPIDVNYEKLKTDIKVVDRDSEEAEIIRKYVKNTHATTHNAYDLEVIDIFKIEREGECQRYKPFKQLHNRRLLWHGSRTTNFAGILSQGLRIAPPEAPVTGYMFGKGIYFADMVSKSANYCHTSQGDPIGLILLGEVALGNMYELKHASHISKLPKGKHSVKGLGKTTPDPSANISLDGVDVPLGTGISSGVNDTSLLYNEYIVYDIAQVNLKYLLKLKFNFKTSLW

Assay [1] concerns the target T1, Flag-Banf1 (barrier-to-autointegration factor 1), wild type (human) (UniProt O75531).
T1 sequence: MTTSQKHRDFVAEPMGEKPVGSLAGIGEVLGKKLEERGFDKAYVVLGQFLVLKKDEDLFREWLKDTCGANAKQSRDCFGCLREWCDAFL
Put plainly: co-IP; Flag immunoprecipitation from HEK293T cells expressing Flag-tagged Banf1 or PARP1 proteins, untreated or 1 h after H2O2 removal; lysates sonicated and digested with nuclease; lysis buffer 20 mM HEPES pH 7.5, 250 mM KCl, 0.5% Triton X-100; 4 °C; immunoblot. (Immunoblotting shows a protein as a band on a membrane.)

For the next assay, the target named is T2, Flag-Banf1 A12T (human) (UniProt O75531).
T2 sequence: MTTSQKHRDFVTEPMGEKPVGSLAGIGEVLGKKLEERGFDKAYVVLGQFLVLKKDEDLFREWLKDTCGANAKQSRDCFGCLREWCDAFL
The description is as above.

In a further assay the target is T3, Flag-Banf1 D9A (human) (UniProt O75531).
T3 sequence: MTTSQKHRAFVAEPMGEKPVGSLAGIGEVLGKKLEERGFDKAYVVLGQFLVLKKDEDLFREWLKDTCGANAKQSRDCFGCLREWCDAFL
The assay is described as above.

The target of assay [2] is purified wild type PARP1 recombinant protein (UniProt P09874). Put plainly: co-IP; 500 ng purified PARP1 incubated with 100 ng purified Banf1 for 5 min at room temperature in 50 mM Tris-HCl pH 7.8, 10 mM MgCl2, 1 mM DTT, ± NAD+/DNA/olaparib; immunoprecipitation with PARP1 antibodies, immunoblot; both purified.
Assay [3] has as its target purified PARP1 E988K recombinant protein (UniProt P09874). The description is as above.
A further assay deals with Flag-PARP1 E988K (human) (UniProt P09874). As to the kind of experiment: co-IP; in cells, catalytically inactive PARP1 E988K or PARP1 inhibitors; details in Supplementary Fig. 2d-f, not shown.
In assay [4] the target is poly [ADP-ribose] polymerase 1 (PARP1), endogenous (human (endogenous in HEK293T and human skin fibroblasts)) (UniProt P09874). Put plainly: co-IP; endogenous proteins in 293T cells and human skin fibroblasts, with or without H2O2; lysates digested with nuclease; immunoblot.
Assay [5] addresses Myc-DDK-tagged human PARP1 (Flag-PARP1), wild type (human) (UniProt P09874). Put plainly: co-IP; Flag immunoprecipitation from HEK293T cells expressing Flag-tagged Banf1 or PARP1 proteins, untreated or 1 h after H2O2 removal; lysates sonicated and digested with nuclease; lysis buffer 20 mM HEPES pH 7.5, 250 mM KCl, 0.5% Triton X-100; 4 °C; immunoblot.

No constants are given. Whether binding was seen depends on the method and setting. For part of these data: In cells and extracts the contact can be indirect. Some results given as binding are weak or reduced against the parent protein; the word gives no strength. For part of these data: Tags and fused reporters may be left off the sequences shown.

In the case of “poly [ADP-ribose] polymerase 1 (PARP1), endogenous (from UniProt P09874 1-1014) (enzyme)”, the binding result (in assay [1]; with Flag-Banf1 A12T (human); in the assay with Flag-Banf1 D9A (human)) was “binds” throughout.

B1: HexaHis-tagged Banf1 A12T, purified (protein, UniProt O75531 1-89)
chain: MTTSQKHRDFVTEPMGEKPVGSLAGIGEVLGKKLEERGFDKAYVVLGQFLVLKKDEDLFREWLKDTCGANAKQSRDCFGCLREWCDAFL
Consider B1, for which the binding result in assay [2] is recorded as “binds”.

B2: HexaHis-tagged Banf1, wild type, purified (protein, UniProt O75531 1-89)
chain: MTTSQKHRDFVAEPMGEKPVGSLAGIGEVLGKKLEERGFDKAYVVLGQFLVLKKDEDLFREWLKDTCGANAKQSRDCFGCLREWCDAFL
Turning to B2, the binding result in assay [3] and in assay [2] was “binds” throughout.

B3: Barrier-to-autointegration factor 1 (Banf1), endogenous (protein, UniProt O75531 1-89)
chain: MTTSQKHRDFVAEPMGEKPVGSLAGIGEVLGKKLEERGFDKAYVVLGQFLVLKKDEDLFREWLKDTCGANAKQSRDCFGCLREWCDAFL
Turning to B3, the binding result (in the assay with Flag-PARP1 E988K (human); in assay [4]; in assay [5]) was “binds” each time.
